Laboratory results: PubChem BioAssay AID1259254 (NCATS, 2017)
Aim: 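Finding genes that stop cells copying their DNA twice in one cycle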 (primary screen). System: human HCT116 colorectal cancer cells. Knock-down reagent: single siRNA against human genes. Time to read-out: 3 days. Detection: 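Nuclei stained with Hoechst and imaged; cell-cycle phase assigned by DNA content; G2 share scaled per plate, non-targeting siRNA 0%, GMNN siRNA 100%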. Direction: G2 robust z-score and G2 cells, % of GMNN control: higher = more G2 cells, more excess DNA replication; raw share of cells in G2: higher = larger share of cells with G2 DNA content. Call rule: 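Active siRNAs have a G2 robust z of 5 or more median absolute deviations over the median, which in these data means about 38% or higher of GMNN control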.
The whole screen tested about 59,000 reagents; this is an unselected part. About 1,550 of all reagents (2.6%) were called active. 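G2 share is only a proxy for re-replication; each gene was hit by three separate siRNAs, and active genes were retested.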 The raw values are shown without normalisation. Reagents against one gene are numbered here. Not stated in the record: the amount of reagent.

gene knocked down	siRNA no.	G2 robust z-score	G2 cells, % of GMNN control	raw share of cells in G2 (%)	call
LHFPL7	1	-0.305	0.819	3.41	inactive
LHFPL7	2	0.43	5.99	5.11	inactive
LHFPL7	3	1.92	16.5	9.56	inactive
COL26A1	1	-0.268	1.09	3.54	inactive
COL26A1	2	-0.334	0.618	3.3	inactive
COL26A1	3	-0.85	-3.01	2.47	inactive
TRAP1	1	0.169	4.15	5.11	inactive
TRAP1	2	1.71	15	11.9	inactive
TRAP1	3	-0.0244	2.8	4.12	inactive
PRSS55	1	0.835	8.84	9.33	inactive
PRSS55	2	-0.414	0.055	4.49	inactive
PRSS55	3	0.891	9.23	7.7	inactive
HORMAD1	1	-0.296	0.885	4.4	inactive
HORMAD1	2	3.23	25.7	11.1	inactive
HORMAD1	3	-1.09	-4.68	0.987	inactive
SMARCA1	1	-0.169	1.77	6.28	inactive
SMARCA1	2	0.604	7.22	7.02	inactive
SMARCA1	3	2.67	21.7	11.2	inactive
PHYHIP	1	2.23	18.7	12.3	inactive
PHYHIP	2	-0.0266	2.78	4.15	inactive
PHYHIP	3	2.54	20.8	13.2	inactive
MROH1	1	-0.383	0.274	3.87	inactive
MROH1	2	0.258	4.79	5.49	inactive
MROH1	3	-0.549	-0.896	4.25	inactive
NRDE2	1	-0.914	-3.46	3.19	inactive
NRDE2	2	-0.0418	2.67	5.25	inactive
NRDE2	3	-0.903	-3.39	2.06	inactive
MDGA1	1	1	10	7.3	inactive
MDGA1	2	0.171	4.17	4.66	inactive
MDGA1	3	0.506	6.53	5.25	inactive
FBXO15	1	-0.123	2.1	4.35	inactive
FBXO15	2	0.443	6.08	5	inactive
FBXO15	3	1.83	15.8	7.76	inactive
MYO9B	1	0.00197	2.98	6.65	inactive
MYO9B	2	-0.547	-0.878	5.02	inactive
MYO9B	3	0.0187	3.1	4.22	inactive
OR5V1	1	-1.07	-4.58	2.58	inactive
OR5V1	2	-0.705	-1.99	2.87	inactive
OR5V1	3	-0.481	-0.417	2.28	inactive
ERBB4	1	-0.866	-3.12	4.58	inactive
ERBB4	2	-1.4	-6.89	3.09	inactive
ERBB4	3	0.4	5.78	6.06	inactive
GAS2	1	-0.577	-1.09	4.79	inactive
GAS2	2	-0.61	-1.33	3.6	inactive
GAS2	3	-0.901	-3.37	2.2	inactive

In a second layout: 9 of the entries above
gene knocked down,siRNA no.,G2 robust z-score,"G2 cells, % of GMNN control",raw share of cells in G2 (%),call
LHFPL7,1,-0.305,0.819,3.41,inactive
LHFPL7,2,0.43,5.99,5.11,inactive
LHFPL7,3,1.92,16.5,9.56,inactive
COL26A1,1,-0.268,1.09,3.54,inactive
COL26A1,2,-0.334,0.618,3.3,inactive
COL26A1,3,-0.85,-3.01,2.47,inactive
TRAP1,1,0.169,4.15,5.11,inactive
TRAP1,2,1.71,15,11.9,inactive
TRAP1,3,-0.0244,2.8,4.12,inactive

The list goes on.
gene knocked down	siRNA no.	G2 robust z-score	G2 cells, % of GMNN control	raw share of cells in G2 (%)	call
TMOD4	1	-0.0548	2.58	4.84	inactive
TMOD4	2	0.274	4.89	6.4	inactive
TMOD4	3	0.501	6.49	5.3	inactive
P2RX4	1	-1.28	-6.01	3.1	inactive
P2RX4	2	-1.48	-7.45	2.26	inactive
P2RX4	3	-0.64	-1.54	3.78	inactive
ZNF491	1	1.57	14	7.92	inactive
ZNF491	2	0.11	3.74	4.47	inactive
ZNF491	3	-0.264	1.11	3.91	inactive
MYL4	1	-0.826	-2.84	4.26	inactive
MYL4	2	-0.797	-2.64	2.32	inactive
MYL4	3	0.485	6.38	8	inactive
RDH11	1	2.16	18.2	10.8	inactive
RDH11	2	-0.56	-0.97	3.89	inactive
RDH11	3	-0.644	-1.56	5.24	inactive
ASCC3	1	2.57	21.1	14.9	inactive
ASCC3	2	0.104	3.7	5.04	inactive
ASCC3	3	-1.1	-4.77	4.6	inactive
TRPV1	1	0.8	8.59	8.42	inactive
TRPV1	2	-1.7	-9.01	1.73	inactive
TRPV1	3	0.694	7.85	7.44	inactive
NTSR2	1	0.293	5.03	7.64	inactive
NTSR2	2	-0.28	1	4.87	inactive
NTSR2	3	-0.456	-0.24	3.2	inactive
